{"source": "patent US5856440", "about": "(dated 1999)", "assay": "general procedure: Boc solid-phase peptide synthesis; Methylbenzhydrylamine (MBHA) resin, 0.40 mmol/g; DCC", "details": "whole synthesis, analytical HPLC (Hamilton PRP-1 reverse phase column), scale of the general procedure 1.00 g resin (0.40 mmol/g)", "data": [{"substance": "Leu-Ala-Gly-Val", "values": [{"measurement": "crude HPLC purity", "value": "about 98%"}]}]}
